Experimental data reported in the supplement of paper PMC12578635.
This is one part of the list. Rule as the data show it: active = 150% or more and inactive = the rest. Many values rest on one well or one pass, so single values are uncertain.

test system: Staphylococcus aureus JE2-lux inside RAW 264.7 macrophages; assay: intracellular bacterial bioluminescence relative to DMSO vehicle; higher = higher intracellular bacterial metabolic activity; conditions: 10 µM; treatment time 4 h; gentamicin 50 µg/ml

Intracellular bacterial bioluminescence, inactive:
O=C(Nc1ccc(OC(F)(F)F)cc1)c1ccc2nc[nH]c2c1 104%
COc1ccc(-c2cc(C3CC3)nc3sc(C(N)=O)c(N)c23)cc1 82.4%
Cc1sc(NC(=O)c2cc3cc([N+](=O)[O-])ccc3s2)c(C#N)c1C 109%
O=C(Nc1ccc2[nH]cnc2c1)c1ccc2nccnc2c1 97%
O=C1c2ccccc2-c2c(Nc3ccccc3)c(=O)[nH]c3cccc1c23 74.8%
COc1ccc(C(=O)/C=C2\C(=O)Nc3ccccc32)cc1 33%
Cc1oc2c(c1C(=O)O)C(=O)c1ccccc1C2=O 76%
CCOC(=O)C(C)Sc1ncnc2c1nnn2Cc1ccc(F)cc1 (stereo unspecified) 48.3%
COc1cccc(NC(=O)N2CCC(NC(=O)c3ccc(F)cc3)CC2)c1 77.7%
Cc1ccccc1-c1nc(Cn2c(=O)c3cccnc3n(-c3ccccc3)c2=O)c(C)o1 95.5%
Cn1c(NC(=O)COc2ccccc2)cc(=O)n(C)c1=O 129%
O=C1NC2=C(C(=O)N(Cc3ccc(F)cc3)C2)C(c2ccc([N+](=O)[O-])cc2)N1 (stereo unspecified) 12.1%
NC(=O)C1CCN(C(=O)NCc2noc3ccccc23)CC1 127%
COC(=O)C1=C(C)Nc2nc(SCc3ccccc3)[nH]c(=O)c2C1c1cccc(F)c1 (stereo unspecified) 90%
Cn1c(=O)[nH]c(=O)c2c1nc(SCc1ccccc1Cl)n2CCc1ccccc1 83.9%
COc1ccc(C(=O)N2CCOC2CNC(=O)C(=O)NCc2ccccc2)cc1 (stereo unspecified) 76.4%
COc1cc(/C=C\C(=O)NCCc2cc3cc(C)c(C)cc3[nH]c2=O)cc(OC)c1OC 90.1%
CC(=O)N(C(C)=O)c1ncnc2sc3c(c12)CCCC3 90.2%
Cc1ccc(NC(=S)NCCCNc2nc3cc4c(cc3cc2C#N)OCO4)c(C)c1 111%
COc1ccc(NC(=O)N2CCC(n3cnc4cc(C(F)(F)F)ccc43)CC2)cc1 41%
CC(=O)N1CCCc2ccc(NC(=O)C(=O)NCc3cccnc3)cc21 108%
CCc1nc(NCc2ccc(OC)cc2OC)c2onc(-c3ccccc3)c2n1 46.6%
Cc1ccnc(SCc2cc(=O)c(OC(=O)COc3ccc(F)cc3)co2)n1 113%
CCOCCn1c(SCc2c(F)cccc2Cl)nc2c1c(=O)[nH]c(=O)n2C 106%
Cc1ccc(NC2CC(=O)N(CCc3ccccc3)C2=O)cc1 (stereo unspecified) 71.1%
COC(=O)c1ccc(CSc2ncnc3ccccc23)o1 66.1%

A draw from above in order of molar mass, smallest number first.
Intracellular bacterial bioluminescence, inactive:
Cc1oc2c(c1C(=O)O)C(=O)c1ccccc1C2=O 76%
CC(=O)N(C(C)=O)c1ncnc2sc3c(c12)CCCC3 90.2%
COc1cc(/C=C\C(=O)NCCc2cc3cc(C)c(C)cc3[nH]c2=O)cc(OC)c1OC 90.1%
